Results on 29 targets are retold here after the supplement of paper PMC12819154, “High-throughput peptide-centric local stability assay extends protein–ligand identification to membrane proteins, tissues and bacteria” (Nature Structural & Molecular Biology, 2025).

By UniProt entry, the sequences of proteins in these tests, tags left out. Where a name states a change or a piece, a line headed by the entry shows the natural chain unless it says otherwise.
UniProt Q8IXS8: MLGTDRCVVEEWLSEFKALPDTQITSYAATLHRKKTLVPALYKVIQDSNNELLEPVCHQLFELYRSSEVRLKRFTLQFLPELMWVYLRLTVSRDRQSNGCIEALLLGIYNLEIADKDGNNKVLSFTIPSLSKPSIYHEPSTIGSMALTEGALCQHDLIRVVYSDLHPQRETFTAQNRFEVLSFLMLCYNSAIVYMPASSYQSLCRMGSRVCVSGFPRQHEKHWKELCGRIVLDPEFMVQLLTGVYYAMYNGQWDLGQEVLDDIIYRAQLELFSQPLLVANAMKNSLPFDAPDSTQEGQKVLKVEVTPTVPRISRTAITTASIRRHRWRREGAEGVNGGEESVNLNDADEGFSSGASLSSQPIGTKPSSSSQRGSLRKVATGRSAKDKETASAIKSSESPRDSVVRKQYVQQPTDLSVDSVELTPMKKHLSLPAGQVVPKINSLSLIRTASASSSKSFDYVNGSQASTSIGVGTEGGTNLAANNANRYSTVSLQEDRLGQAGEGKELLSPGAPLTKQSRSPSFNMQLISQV
UniProt Q8IYU2: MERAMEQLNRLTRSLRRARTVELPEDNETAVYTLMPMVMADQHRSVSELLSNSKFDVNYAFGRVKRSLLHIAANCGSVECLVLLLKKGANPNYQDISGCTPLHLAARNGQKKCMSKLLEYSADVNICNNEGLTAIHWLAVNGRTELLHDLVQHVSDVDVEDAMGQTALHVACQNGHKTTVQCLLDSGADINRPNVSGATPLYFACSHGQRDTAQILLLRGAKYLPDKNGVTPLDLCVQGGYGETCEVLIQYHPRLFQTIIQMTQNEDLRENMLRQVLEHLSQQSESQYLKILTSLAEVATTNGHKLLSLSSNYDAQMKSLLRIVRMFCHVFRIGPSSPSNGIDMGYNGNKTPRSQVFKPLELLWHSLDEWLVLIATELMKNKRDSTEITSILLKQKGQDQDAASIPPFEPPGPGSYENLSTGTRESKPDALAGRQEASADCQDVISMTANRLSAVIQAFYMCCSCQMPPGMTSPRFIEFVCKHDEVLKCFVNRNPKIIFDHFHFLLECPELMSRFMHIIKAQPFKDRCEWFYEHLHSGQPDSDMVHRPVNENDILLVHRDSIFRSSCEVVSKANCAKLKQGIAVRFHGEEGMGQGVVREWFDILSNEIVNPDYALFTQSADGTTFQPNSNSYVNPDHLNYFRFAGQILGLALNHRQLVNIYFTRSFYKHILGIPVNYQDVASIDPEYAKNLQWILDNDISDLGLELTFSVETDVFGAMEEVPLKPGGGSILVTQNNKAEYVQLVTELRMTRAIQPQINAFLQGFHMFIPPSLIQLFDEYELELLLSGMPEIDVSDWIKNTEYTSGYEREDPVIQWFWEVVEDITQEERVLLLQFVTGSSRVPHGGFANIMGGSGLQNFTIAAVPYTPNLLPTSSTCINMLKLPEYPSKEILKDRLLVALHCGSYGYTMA
UniProt Q8IY17: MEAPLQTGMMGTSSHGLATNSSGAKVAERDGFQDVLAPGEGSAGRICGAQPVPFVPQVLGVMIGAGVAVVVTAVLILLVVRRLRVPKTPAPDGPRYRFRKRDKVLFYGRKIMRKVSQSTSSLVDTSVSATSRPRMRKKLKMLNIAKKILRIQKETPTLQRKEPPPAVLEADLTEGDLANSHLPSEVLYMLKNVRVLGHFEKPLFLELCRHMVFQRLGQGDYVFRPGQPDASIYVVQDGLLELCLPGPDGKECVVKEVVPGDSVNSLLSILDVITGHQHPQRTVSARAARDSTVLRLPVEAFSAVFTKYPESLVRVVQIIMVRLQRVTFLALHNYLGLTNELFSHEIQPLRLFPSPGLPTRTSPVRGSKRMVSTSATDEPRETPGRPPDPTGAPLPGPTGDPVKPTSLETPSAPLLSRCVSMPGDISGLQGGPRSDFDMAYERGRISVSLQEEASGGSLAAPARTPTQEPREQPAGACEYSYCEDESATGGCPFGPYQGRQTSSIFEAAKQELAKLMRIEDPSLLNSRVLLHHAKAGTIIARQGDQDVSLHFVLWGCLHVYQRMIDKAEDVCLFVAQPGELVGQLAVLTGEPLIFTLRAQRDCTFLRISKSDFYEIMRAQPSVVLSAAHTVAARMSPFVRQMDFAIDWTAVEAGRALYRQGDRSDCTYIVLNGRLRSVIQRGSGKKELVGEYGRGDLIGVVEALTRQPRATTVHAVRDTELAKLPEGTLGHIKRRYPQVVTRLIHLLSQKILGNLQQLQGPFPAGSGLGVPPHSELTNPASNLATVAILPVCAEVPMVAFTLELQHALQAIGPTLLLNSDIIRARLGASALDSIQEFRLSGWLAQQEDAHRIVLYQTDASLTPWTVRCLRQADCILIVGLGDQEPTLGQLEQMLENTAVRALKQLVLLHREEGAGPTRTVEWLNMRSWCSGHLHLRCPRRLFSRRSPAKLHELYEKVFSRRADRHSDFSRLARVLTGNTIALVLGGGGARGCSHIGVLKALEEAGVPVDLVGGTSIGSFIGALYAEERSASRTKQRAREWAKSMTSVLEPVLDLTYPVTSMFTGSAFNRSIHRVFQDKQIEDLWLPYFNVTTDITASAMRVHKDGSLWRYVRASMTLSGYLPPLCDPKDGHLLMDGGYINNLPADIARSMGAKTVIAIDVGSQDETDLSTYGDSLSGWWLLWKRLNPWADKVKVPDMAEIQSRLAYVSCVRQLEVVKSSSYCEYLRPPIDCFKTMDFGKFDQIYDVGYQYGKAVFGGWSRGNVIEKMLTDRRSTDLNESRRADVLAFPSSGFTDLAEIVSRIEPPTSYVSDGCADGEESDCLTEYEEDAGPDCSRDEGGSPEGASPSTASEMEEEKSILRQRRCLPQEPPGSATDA
UniProt Q8IWX8: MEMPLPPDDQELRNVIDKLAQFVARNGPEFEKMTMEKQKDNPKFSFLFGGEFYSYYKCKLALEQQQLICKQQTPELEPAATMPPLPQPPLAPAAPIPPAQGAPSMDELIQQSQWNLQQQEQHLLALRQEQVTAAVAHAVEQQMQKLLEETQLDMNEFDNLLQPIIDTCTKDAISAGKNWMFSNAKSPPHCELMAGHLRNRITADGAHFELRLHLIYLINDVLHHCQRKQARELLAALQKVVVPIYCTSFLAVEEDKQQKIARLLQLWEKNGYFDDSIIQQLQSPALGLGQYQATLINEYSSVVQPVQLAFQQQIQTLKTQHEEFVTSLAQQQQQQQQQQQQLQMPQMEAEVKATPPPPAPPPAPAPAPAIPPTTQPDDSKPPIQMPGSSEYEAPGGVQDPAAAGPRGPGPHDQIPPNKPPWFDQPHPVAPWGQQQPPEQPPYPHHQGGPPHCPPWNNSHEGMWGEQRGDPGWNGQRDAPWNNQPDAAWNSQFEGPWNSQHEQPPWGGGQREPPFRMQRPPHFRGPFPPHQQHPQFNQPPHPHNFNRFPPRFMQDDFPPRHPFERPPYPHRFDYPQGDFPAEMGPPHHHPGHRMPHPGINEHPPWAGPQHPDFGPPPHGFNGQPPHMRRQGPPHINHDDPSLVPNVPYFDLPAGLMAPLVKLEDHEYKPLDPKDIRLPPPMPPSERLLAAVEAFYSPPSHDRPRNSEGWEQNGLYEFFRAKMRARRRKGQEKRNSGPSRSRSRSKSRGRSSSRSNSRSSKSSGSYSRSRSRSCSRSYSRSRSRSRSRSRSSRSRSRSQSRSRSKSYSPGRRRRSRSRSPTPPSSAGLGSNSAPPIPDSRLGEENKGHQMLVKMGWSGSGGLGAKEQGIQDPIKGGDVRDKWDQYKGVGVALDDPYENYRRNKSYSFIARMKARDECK
UniProt Q8IY18: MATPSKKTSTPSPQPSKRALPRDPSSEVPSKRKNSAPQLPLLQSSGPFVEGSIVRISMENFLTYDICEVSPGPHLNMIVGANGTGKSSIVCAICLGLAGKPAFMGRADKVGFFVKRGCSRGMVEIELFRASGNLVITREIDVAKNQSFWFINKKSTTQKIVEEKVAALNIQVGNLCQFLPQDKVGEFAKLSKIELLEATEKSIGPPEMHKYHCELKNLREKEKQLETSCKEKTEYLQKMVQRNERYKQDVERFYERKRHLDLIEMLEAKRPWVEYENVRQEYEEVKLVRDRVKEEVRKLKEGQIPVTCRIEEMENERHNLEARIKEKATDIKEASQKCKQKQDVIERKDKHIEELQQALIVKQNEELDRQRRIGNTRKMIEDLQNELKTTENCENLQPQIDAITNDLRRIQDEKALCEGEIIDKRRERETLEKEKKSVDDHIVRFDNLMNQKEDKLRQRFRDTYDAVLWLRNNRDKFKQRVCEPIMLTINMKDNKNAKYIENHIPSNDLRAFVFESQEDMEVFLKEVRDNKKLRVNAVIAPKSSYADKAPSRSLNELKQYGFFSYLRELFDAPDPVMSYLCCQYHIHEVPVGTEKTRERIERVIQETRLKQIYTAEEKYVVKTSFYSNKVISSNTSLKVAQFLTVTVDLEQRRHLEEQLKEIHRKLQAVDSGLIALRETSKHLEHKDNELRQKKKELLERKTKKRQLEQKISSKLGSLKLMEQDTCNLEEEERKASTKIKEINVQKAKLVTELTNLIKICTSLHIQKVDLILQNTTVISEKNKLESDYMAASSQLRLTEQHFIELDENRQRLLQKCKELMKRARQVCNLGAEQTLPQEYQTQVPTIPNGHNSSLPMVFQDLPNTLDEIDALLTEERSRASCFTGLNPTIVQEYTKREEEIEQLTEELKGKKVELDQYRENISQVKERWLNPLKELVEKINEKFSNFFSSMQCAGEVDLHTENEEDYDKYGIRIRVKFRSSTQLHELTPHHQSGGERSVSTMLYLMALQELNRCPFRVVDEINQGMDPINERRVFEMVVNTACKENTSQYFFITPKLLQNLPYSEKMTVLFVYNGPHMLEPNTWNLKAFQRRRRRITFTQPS
UniProt Q8IY82: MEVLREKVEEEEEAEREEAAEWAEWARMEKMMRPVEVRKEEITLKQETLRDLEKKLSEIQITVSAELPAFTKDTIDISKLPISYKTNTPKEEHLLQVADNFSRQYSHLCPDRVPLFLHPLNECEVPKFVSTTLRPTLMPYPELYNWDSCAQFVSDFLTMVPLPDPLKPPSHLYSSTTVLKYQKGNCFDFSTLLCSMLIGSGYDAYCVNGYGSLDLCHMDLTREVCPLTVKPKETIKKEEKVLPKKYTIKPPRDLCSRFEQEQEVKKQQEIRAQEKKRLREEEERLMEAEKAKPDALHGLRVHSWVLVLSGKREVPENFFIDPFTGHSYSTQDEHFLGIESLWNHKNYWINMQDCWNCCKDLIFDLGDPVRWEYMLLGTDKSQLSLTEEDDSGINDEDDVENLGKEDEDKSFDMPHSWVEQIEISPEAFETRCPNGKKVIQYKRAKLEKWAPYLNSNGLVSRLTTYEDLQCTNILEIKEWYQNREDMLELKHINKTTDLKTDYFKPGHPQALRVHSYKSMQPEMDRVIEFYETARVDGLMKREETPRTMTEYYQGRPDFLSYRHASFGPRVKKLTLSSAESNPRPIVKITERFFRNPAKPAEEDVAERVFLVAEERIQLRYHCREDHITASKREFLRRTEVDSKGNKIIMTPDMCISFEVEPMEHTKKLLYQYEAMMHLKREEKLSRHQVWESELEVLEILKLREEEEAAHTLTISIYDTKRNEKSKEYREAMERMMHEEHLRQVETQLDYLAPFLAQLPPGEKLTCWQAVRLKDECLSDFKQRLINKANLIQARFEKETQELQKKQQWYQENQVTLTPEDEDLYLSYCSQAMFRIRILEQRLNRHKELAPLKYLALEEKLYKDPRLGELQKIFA
UniProt Q8IVD9: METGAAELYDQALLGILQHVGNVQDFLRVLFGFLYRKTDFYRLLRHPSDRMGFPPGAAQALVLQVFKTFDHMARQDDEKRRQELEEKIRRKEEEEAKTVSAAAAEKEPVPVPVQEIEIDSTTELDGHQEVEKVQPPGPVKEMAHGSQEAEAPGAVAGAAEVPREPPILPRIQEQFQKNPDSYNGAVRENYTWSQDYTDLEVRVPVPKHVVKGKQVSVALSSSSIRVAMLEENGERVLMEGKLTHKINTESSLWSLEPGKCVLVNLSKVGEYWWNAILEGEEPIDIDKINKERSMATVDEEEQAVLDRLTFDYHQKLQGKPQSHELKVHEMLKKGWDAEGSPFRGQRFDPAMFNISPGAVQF
UniProt Q8IZC7: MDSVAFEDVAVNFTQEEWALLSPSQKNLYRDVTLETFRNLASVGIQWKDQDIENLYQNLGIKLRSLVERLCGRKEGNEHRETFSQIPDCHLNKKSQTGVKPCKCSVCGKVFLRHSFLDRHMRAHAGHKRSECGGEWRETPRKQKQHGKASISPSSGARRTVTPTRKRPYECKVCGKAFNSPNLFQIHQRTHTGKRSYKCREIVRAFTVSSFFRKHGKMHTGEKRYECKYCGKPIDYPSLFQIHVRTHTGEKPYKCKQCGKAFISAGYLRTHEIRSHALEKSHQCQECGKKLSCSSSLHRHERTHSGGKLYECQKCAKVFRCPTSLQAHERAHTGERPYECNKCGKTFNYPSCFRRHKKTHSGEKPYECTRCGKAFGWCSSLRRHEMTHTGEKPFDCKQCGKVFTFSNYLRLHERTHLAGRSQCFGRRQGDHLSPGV

The list shows a part of the results. Most values lie at the level of the controls, where differences are scatter.

Compound in the test: Cc1nc(Nc2ncc(C(=O)Nc3c(C)cccc3Cl)s2)cc(N2CCN(CCO)CC2)n1 [dasatinib]
As to the kind of experiment: log2 fold change of tryptic peptide abundance, ligand vs vehicle (limited proteolysis) (log2 ratio); higher = more trypsin-susceptible (destabilized). The conditions noted are these: ligand concentration: 5 uM; sample: K562 cleared lysate.
As to “DCP2 (peptide sequence: QPLQQKPYNNHSEMSDLLK, peptide start residue: 294) (UniProt Q8IU60)”, the log2 fold change stood at 0.58. Under “FAM126B (peptide sequence: YSTVSLQEDR, peptide start residue: 487) (UniProt Q8IXS8)” stands 0.115; under “HACE1 (peptide sequence: DSTEITSILLK, peptide start residue: 384) (UniProt Q8IYU2)”, -0.106. As for “RPUSD2 (peptide sequence: TNEELLR, peptide start residue: 407) (UniProt Q8IZ73)”, the log2 fold change was -0.149. Consider “UniProt Q8N163 (peptide sequence: DDGEEEFAGAKLEDSEVR, peptide start residue: 657)”, for which the log2 fold change stood at 0.158.

Regarding “PNPLA6 (peptide sequence: STDLNESR, peptide start residue: 1272) (UniProt Q8IY17)”, the log2 fold change was -0.547. As for “UniProt Q8IZM8 (peptide sequence: IPEAMALIK, peptide start residue: 209)”, the figure is -0.285. As for “FOXP4 (peptide sequence: QAILETPDR, peptide start residue: 478) (UniProt Q8IVH2)”, the figure is -0.409.

On to “UniProt Q8IXH7 (peptide sequence: FPVVAMGVLK, peptide start residue: 420)”, for which the log2 fold change was -0.691. “CHERP (peptide sequence: LPPPMPPSER, peptide start residue: 676) (UniProt Q8IWX8)”: the log2 fold change is -0.23. With “RDH10 (peptide sequence: QATNNNEAK, peptide start residue: 330) (UniProt Q8IZV5)”, the log2 fold change came to 0.269. Under “CEP97 (peptide sequence: MAPAYLPR, peptide start residue: 163) (UniProt Q8IW35)” stands -0.373; under “KIF18B (peptide sequence: RGSLPDTQPSQGPSTPK, peptide start residue: 660) (UniProt Q86Y91)”, 0.353; under “IFT20 (peptide sequence: EAQQQQLQALIAEKK, peptide start residue: 87) (UniProt Q8IY31)”, 0.307. “UniProt Q8IX01 (peptide sequence: CSLKPEHR, peptide start residue: 371)”: the log2 fold change was found to be 1.22. In the case of “ZNF410 (peptide sequence: LMLPDDTTNHSNSSK, peptide start residue: 53) (UniProt Q86VK4)”, the log2 fold change came to 0.369. Under “ALDH16A1 (peptide sequence: LLIQESVWDEAMRR, peptide start residue: 309) (UniProt Q8IZ83)” stands 0.179; under “TXNDC2 (peptide sequence: SPEETIQPK, peptide start residue: 242) (UniProt Q86VQ3)”, -0.498; under “SIRT2 (peptide sequence: NLFSQTLSLGSQKER, peptide start residue: 43) (UniProt Q8IXJ6)”, -0.216. For the target “GLCCI1 (peptide sequence: QPISAPLFSCPDKNK, peptide start residue: 436) (UniProt Q86VQ1)”, the log2 fold change was 0.196. Under “SMC5 (peptide sequence: SIGPPEMHK, peptide start residue: 202) (UniProt Q8IY18)” stands -0.612. As for “UniProt Q8IY82 (peptide sequence: KQQEIRAQEK, peptide start residue: 266)”, the figure is -0.65; as for “UniProt Q8IYS0 (peptide sequence: SLLPTLEK, peptide start residue: 279)”, 0.0964. Under “NUDCD3 (peptide sequence: NPDSYNGAVR, peptide start residue: 178) (UniProt Q8IVD9)” stands 0.53. “PHC2 (peptide sequence: DLVGMGHHFLPSEPTK, peptide start residue: 778) (UniProt Q8IXK0)”: the log2 fold change is -0.121. As for “HOMER1 (peptide sequence: SQNEQEAFR, peptide start residue: 315) (UniProt Q86YM7)”, the log2 fold change is -0.577. For “ZNF101 (peptide sequence: RQGDHLSPGV, peptide start residue: 427) (UniProt Q8IZC7)”, the log2 fold change worked out at 0.266. Under “SFR1 (peptide sequence: NQDFTFK, peptide start residue: 7) (UniProt Q86XK3)” stands -0.739; under “KSR1 (peptide sequence: QIAQEIIK, peptide start residue: 712) (UniProt Q8IVT5)”, -0.131.
